These are yes or no findings as the source states them, for the method shown. In cells and extracts the contact can be indirect. Some entries that bind do so weakly or less than the wild type.

Binding data for one substance are collected here from paper PMC5438655.

The experiment concerns the target GST H-Ras (UniProt P01112). The experiment can be described thus: pull-down; GST pull-down with glutathione sepharose from lysates of HEK 293T cells co-expressing bait and prey; 0.5% NP-40, 150 mM NaCl, 10 mM HEPES; 3-4 hours at 4°C; western blot. In general terms: Immunoblotting shows a protein as a band on a membrane.

As to “Venus-Flag Aurora B (from UniProt Q96GD4 1-344)”, the binding entry is “binds”.
